Values from PubChem BioAssay AID686943 (Drosophila RNAi Screening Center, 2013).
Aim: 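Fly genes whose loss alters ERK activation after insulin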 (primary screen). System: Drosophila S2R+ haemocyte-like cells expressing YFP-tagged ERK (Rolled). Knock-down reagent: long dsRNA against Drosophila genes. Conditions: insulin stimulation versus unstimulated cells; dose and duration not given. Measurement: 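Antibody staining for doubly phosphorylated ERK divided by ERK-YFP signal, as plate z-scores, in insulin-treated and untreated cells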. Scale: replicate 1, z-score of dpERK with insulin: higher = more active ERK per ERK-YFP after insulin.
The deposit covers about 23,000 reagents; this is an unselected part of those that have a named target and a result. 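Extra replicates exist only for a retested subset of genes; insulin dose and duration not given; both raised and lowered dpERK matter.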 Not all columns of the deposit are shown. The record does not give: the amount of reagent, the time to read-out.

corn (cornetto) [DRSC11021] showed replicate 1, z-score of dpERK with insulin -0.52.
Against corn (cornetto) [DRSC21943] the deposit lists replicate 1, z-score of dpERK with insulin 0.69.
With knock-down of Rca1 (Regulator of cyclin A1) [DRSC03407], the record shows replicate 1, z-score of dpERK with insulin -1.67.
Against Acsx3 (Acyl-CoA synthetase X3) [DRSC14309], the values are replicate 1, z-score of dpERK with insulin 0.5.
After knock-down of CG13117 [DRSC02215], the screen gave replicate 1, z-score of dpERK with insulin 0.15.
For Edc3 (Enhancer of decapping 3) [DRSC10620], the values are replicate 1, z-score of dpERK with insulin -0.01.
Depletion of Sol1 [DRSC15263] resulted in: replicate 1, z-score of dpERK with insulin 0.3.
After knock-down of Sol1 [DRSC15271], the screen gave replicate 1, z-score of dpERK with insulin 0.29.
Against Sol1 [DRSC15681], the entry reads replicate 1, z-score of dpERK with insulin 0.04.

Looked up above.
Under “replicate 1, z-score of dpERK with insulin”, Rca1 (Regulator of cyclin A1) [DRSC03407] is entered as -1.67
Value of corn (cornetto) [DRSC11021] under “replicate 1, z-score of dpERK with insulin”: -0.52
Sol1 [DRSC15263], replicate 1, z-score of dpERK with insulin → 0.3

More reagents follow.
With knock-down of axo (axotactin) [DRSC08116], the record shows replicate 1, z-score of dpERK with insulin 0.04.
For axo (axotactin) [DRSC08324], the values are replicate 1, z-score of dpERK with insulin -0.01.
With knock-down of axo (axotactin) [DRSC08326] the results were replicate 1, z-score of dpERK with insulin -2.84.
Against axo (axotactin) [DRSC21337], the values are replicate 1, z-score of dpERK with insulin -0.13.
After knock-down of CG15201 [DRSC19648], the record shows replicate 1, z-score of dpERK with insulin 1.9.
Depletion of Det (Deterin) [DRSC14489] resulted in: replicate 1, z-score of dpERK with insulin 0.29.
CG34242 [DRSC09185] gave replicate 1, z-score of dpERK with insulin 0.45.
For CG13901 [DRSC08371], the values are replicate 1, z-score of dpERK with insulin -0.09.
Depletion of ND-B17.2 (NADH dehydrogenase (ubiquinone) B17.2 subunit) [DRSC00577] came out at: replicate 1, z-score of dpERK with insulin 1.28.
For Trf2 (TATA box binding protein-related factor 2) [DRSC18727], the entry reads replicate 1, z-score of dpERK with insulin 0.15.
Against CG7054 [DRSC16185] the deposit lists replicate 1, z-score of dpERK with insulin -0.15.
Eig71Ec (Ecdysone-induced gene 71Ec) [DRSC11150] showed replicate 1, z-score of dpERK with insulin 1.09.
